{"source": "paper PMC12143348", "about": "“Rapid and reversible fluorescent probe enables repeated snapshot imaging of AMPA receptors during synaptic plasticity” (Science Advances, 2025)", "assay": "pH-dependency of fluorescent intensity in GTA buffer (spectrofluorophotometer)", "settings": "2 µM probe in GTA buffer pH 4–10, normalized to pH 10", "note": "Entries after “also recorded” stand apart in the source; their conditions may differ. Certain results were filed several times, with different values. The list is limited to them. An entry can have further records. The records of an entry differ, and nothing given here explains why; some may be repeats, others may stem from another dose, organism or construct than stated."}
{"molecule": "O=C(O)Cn1c(=O)c(=O)[nH]c2cc(C(F)(F)F)c(-n3ccc(CNC(=O)c4ccc(-c5c6ccc(=O)cc-6oc6cc(O)ccc56)c(C(=O)O)c4)c3)cc21", "values": [{"measurement": "pH dependency of the fluorescence intensity", "result": "weakened even under mild acidic conditions (e.g., pH 6); also recorded: weakened under acidic conditions (pH < 6)"}]}
